Measurements as given in doi:10.1101/583542 (bioRxiv, 2019).
Results are given in words; binding and its absence hold for the method and conditions named. Binding can be weak; no strength is given.

The chains behind the UniProt entries cited, without tags or fusion partners. Where a name states a change or a piece, a line headed by the entry shows the natural chain unless it says otherwise.
UniProt O82811: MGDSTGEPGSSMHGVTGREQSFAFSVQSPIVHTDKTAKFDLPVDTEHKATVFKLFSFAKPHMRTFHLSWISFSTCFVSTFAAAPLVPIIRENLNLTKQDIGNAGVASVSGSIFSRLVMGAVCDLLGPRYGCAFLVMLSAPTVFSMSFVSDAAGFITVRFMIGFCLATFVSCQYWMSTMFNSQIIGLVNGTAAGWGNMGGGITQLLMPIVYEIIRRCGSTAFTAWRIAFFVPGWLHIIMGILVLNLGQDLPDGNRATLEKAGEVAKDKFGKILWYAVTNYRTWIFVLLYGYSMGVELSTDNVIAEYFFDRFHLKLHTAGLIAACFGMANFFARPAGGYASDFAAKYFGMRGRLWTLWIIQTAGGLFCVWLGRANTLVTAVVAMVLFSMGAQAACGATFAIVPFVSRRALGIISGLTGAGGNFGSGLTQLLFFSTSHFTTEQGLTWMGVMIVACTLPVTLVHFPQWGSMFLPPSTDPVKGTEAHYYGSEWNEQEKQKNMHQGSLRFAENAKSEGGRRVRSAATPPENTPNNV

Columns and labels:
[1] = target: NRT2.1 ΔC494-530 (truncated NRT2.1 without epitope 20) (Arabidopsis thaliana) (UniProt O82811); experiment: native gel or EMSA
[2] = target: NRT2.1 ΔC514-530 (truncated NRT2.1 with epitope 20) (Arabidopsis thaliana) (UniProt O82811); experiment: native gel or EMSA

B1: NAR2.1 (Arabidopsis thaliana roots) (protein, UniProt Q9FGS5 23-210)
chain: AEKVRLFKELDKGALDVTTKPSREGPGVVLDAGKDTLNITWTLSSIGSKREAEFKIIKVKLCYAPPSQVDRPWRKTHDELFKDKTCPHKIIAKPYDKTLQSTTWTLERDIPTGTYFVRAYAVDAIGHEVAYGQSTDDAKKTNLFSVQAISGRHASLDIASICFSVFSVVALVVFFVNEKRKAKIEQSK
B1 was tested. Which binding [1] did it give?
Its binding is “binds”.

And the binding [2]?
The binding was “binds”.
